Results are given in words; binding and its absence hold for the method and conditions named. Binding seen in cells or lysates may run through a third protein. A yes stands for co-enrichment or nearness to the bait. Other partners may have been found. Each block holds one molecule with its values, some of them ahead of it.
Assays:
[1] = target: N-terminally GFP tagged CIC-S (human) (UniProt Q96RK0); test: affinity purification with mass spectrometry; CIC-S with N-terminal FLAG, Myc or GFP tag transiently expressed in HEK cells; IP of cytoplasmic fractions with anti-FLAG (F-1), anti-Myc (M-1) or anti-GFP (G-1) antibodies, empty vectors as controls; LC-MS/MS
[2] = target: N-terminally Myc tagged CIC-S (human) (UniProt Q96RK0); test: as above
[3] = target: endogenous Capicua short isoform (CIC-S) (human (endogenous in HEK)) (UniProt Q96RK0); test: affinity purification with mass spectrometry; IP of endogenous CIC with an anti-CIC antibody on protein G agarose from HEK cytoplasmic fractions (E-1, E-2, E-3; W-1 not explained), rabbit IgG IPs as controls; IP buffer 20mM Tris-HCl pH 7.5, 150mM NaCl, 1mM EDTA, 4°C; LC-MS/MS
[4] = target: N-terminally FLAG fused CIC-S (human) (UniProt Q96RK0); test: affinity purification with mass spectrometry; CIC-S with N-terminal FLAG, Myc or GFP tag transiently expressed in HEK cells; IP of cytoplasmic fractions with anti-FLAG (F-1), anti-Myc (M-1) or anti-GFP (G-1) antibodies, empty vectors as controls; LC-MS/MS

Chains of the proteins cited; added tags and fusions are not shown. Lines headed by an entry give the natural chain unless they say otherwise; changes in a name come on top. Residues count along the entry.
UniProt Q96RK0: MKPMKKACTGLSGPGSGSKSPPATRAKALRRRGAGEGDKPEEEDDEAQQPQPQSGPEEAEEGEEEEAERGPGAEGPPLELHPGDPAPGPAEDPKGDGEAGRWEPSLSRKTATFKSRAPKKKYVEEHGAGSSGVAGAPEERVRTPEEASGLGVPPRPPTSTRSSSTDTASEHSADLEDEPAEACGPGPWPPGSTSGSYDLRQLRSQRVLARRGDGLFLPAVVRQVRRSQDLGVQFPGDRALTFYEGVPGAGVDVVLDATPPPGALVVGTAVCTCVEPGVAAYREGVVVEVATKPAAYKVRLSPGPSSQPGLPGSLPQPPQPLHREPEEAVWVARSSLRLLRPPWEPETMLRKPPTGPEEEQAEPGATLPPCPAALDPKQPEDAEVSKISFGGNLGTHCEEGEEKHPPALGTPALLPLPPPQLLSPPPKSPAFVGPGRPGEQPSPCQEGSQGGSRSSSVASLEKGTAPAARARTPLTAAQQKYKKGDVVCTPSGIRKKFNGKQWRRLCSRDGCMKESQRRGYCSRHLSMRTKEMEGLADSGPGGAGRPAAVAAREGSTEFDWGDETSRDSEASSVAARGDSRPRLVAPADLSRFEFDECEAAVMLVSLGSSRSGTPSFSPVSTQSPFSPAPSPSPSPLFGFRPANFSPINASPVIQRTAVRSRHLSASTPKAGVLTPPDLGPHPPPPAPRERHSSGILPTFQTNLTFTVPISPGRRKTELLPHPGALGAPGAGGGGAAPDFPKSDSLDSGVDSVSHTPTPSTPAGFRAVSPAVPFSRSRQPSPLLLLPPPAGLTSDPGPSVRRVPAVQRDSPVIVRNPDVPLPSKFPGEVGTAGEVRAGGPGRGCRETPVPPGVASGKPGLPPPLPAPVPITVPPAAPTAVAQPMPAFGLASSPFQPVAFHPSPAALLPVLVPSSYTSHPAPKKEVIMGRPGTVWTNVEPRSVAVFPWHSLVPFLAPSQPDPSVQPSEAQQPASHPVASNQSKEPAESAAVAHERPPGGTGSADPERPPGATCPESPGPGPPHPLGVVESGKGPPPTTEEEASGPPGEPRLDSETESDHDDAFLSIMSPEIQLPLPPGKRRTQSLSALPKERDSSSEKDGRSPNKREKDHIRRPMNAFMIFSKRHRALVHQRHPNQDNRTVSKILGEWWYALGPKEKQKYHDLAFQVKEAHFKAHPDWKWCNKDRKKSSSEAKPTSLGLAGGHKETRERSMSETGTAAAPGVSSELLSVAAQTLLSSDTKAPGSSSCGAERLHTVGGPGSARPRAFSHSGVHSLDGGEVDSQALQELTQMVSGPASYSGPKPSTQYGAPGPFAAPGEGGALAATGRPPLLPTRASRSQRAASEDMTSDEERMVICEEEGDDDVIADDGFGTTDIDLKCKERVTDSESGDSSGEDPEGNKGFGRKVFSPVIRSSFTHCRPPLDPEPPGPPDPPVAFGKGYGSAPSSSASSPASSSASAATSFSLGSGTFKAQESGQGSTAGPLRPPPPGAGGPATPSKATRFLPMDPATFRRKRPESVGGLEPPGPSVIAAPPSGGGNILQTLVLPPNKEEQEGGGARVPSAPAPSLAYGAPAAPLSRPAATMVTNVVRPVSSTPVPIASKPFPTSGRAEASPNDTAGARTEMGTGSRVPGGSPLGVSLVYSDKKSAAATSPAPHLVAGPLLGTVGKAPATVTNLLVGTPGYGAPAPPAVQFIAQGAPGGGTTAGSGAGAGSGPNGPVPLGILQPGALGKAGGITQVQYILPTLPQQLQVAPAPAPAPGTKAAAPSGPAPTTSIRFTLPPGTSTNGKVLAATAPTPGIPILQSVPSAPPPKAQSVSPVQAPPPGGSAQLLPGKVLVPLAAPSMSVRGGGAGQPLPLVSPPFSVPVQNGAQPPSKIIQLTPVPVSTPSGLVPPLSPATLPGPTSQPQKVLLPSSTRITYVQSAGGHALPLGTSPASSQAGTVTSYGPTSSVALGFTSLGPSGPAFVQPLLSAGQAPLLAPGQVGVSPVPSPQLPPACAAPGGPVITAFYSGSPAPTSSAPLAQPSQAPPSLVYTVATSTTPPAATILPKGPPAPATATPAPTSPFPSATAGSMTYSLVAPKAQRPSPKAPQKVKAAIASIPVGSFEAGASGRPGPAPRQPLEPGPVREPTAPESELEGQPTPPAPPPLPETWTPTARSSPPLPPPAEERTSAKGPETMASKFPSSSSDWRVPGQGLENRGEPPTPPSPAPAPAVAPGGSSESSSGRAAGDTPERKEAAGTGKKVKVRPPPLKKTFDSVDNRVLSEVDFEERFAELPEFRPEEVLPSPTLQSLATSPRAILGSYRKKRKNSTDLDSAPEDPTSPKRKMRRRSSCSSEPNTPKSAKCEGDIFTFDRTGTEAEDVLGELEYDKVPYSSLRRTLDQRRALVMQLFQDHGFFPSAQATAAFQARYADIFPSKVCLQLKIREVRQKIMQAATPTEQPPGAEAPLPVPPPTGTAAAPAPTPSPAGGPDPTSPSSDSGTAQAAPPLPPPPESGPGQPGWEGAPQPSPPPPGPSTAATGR
UniProt P25705, residues 44-553: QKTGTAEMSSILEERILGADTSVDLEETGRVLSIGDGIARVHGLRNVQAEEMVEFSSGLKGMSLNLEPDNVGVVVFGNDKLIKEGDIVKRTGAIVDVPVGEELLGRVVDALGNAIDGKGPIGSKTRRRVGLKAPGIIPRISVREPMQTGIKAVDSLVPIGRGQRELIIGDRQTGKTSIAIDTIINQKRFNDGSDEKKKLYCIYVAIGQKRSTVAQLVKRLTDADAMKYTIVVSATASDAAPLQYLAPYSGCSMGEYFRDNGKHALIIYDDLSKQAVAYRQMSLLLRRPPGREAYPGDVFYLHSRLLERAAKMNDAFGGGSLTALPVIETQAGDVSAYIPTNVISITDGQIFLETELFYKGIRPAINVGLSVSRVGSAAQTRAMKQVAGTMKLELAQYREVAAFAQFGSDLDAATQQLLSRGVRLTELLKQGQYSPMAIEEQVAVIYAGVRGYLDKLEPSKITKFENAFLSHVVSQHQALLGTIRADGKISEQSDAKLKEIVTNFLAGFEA
UniProt P53396: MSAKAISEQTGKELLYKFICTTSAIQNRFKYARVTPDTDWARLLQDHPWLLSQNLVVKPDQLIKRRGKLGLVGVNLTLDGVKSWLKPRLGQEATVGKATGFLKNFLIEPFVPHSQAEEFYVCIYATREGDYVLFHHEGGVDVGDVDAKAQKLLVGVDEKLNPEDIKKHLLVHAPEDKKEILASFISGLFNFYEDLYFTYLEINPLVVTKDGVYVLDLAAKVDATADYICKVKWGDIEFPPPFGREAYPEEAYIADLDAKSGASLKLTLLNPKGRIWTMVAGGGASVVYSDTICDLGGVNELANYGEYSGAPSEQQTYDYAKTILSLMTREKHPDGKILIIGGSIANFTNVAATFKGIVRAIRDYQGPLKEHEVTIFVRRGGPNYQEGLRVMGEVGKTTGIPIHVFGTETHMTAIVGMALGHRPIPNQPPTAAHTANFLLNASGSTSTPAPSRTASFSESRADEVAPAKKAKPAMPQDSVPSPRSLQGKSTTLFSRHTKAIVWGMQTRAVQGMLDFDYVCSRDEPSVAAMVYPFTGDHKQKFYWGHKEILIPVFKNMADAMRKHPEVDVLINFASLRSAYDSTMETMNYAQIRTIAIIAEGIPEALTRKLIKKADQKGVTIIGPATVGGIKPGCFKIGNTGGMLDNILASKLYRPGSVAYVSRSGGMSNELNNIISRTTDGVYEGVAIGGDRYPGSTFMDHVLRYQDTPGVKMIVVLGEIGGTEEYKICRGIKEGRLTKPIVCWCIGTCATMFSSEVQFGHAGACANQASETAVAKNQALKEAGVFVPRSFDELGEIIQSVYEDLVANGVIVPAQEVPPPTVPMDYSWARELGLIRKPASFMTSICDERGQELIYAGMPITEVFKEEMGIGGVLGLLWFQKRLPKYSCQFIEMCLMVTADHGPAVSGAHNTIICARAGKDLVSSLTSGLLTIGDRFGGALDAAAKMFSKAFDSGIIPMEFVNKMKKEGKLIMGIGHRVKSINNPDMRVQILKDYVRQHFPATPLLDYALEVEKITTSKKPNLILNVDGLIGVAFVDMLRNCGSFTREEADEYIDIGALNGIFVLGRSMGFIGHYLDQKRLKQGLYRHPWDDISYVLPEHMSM
UniProt O00429: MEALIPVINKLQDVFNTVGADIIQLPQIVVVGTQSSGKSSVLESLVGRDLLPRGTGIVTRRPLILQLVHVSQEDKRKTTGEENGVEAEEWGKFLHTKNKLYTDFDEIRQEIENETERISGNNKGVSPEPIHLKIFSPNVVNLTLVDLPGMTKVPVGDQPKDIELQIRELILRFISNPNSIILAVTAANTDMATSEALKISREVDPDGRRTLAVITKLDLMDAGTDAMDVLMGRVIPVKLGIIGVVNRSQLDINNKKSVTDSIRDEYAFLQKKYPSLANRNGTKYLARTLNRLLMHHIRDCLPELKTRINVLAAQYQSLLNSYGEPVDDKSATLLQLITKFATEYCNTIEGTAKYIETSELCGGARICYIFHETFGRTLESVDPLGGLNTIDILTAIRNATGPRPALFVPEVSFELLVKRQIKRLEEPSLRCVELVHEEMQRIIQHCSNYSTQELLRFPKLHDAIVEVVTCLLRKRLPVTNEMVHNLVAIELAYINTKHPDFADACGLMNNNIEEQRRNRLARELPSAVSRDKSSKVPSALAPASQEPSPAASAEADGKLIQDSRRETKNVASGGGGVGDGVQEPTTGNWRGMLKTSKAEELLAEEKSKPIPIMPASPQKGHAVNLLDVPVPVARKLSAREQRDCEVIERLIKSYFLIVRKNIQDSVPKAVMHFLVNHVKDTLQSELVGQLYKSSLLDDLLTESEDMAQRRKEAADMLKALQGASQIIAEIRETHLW
UniProt P38646, residues 47-679: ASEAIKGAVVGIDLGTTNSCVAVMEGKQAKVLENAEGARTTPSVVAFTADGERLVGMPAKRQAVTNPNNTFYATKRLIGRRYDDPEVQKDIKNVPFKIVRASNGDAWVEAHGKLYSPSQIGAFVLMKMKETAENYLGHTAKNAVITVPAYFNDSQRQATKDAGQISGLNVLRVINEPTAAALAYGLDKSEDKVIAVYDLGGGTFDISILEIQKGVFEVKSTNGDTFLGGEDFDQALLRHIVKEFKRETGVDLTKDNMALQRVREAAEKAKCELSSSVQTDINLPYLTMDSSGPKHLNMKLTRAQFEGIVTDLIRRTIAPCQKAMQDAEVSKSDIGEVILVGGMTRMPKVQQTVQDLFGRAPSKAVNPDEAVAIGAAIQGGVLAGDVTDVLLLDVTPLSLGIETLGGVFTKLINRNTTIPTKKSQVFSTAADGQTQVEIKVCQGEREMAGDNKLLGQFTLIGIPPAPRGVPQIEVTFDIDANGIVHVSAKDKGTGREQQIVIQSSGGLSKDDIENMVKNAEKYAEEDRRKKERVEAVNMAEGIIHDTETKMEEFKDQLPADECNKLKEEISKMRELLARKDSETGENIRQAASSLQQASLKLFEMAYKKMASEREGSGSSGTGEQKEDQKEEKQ

binding [1]: binds
binding [2]: binds
Molecule: ATP synthase subunit alpha, mitochondrial (from UniProt P25705 44-553)

binding [2]: binds
binding [3]: binds
B3: Putative ATP-dependent RNA helicase DHX30 (protein, UniProt Q7L2E3 1-1194)
chain: MFSLDSFRKDRAQHRQRQCKLPPPRLPPMCVNPTPGGTISRASRDLLKEFPQPKNLLNSVIGRALGISHAKDKLVYVHTNGPKKKKVTLHIKWPKSVEVEGYGSKKIDAERQAAAAACQLFKGWGLLGPRNELFDAAKYRVLADRFGSPADSWWRPEPTMPPTSWRQLNPESIRPGGPGGLSRSLGREEEEDEEEELEEGTIDVTDFLSMTQQDSHAPLRDSRGSSFEMTDDDSAIRALTQFPLPKNLLAKVIQIATSSSTAKNLMQFHTVGTKTKLSTLTLLWPCPMTFVAKGRRKAEAENKAAALACKKLKSLGLVDRNNEPLTHAMYNLASLRELGETQRRPCTIQVPEPILRKIETFLNHYPVESSWIAPELRLQSDDILPLGKDSGPLSDPITGKPYVPLLEAEEVRLSQSLLELWRRRGPVWQEAPQLPVDPHRDTILNAIEQHPVVVISGDTGCGKTTRIPQLLLERYVTEGRGARCNVIITQPRRISAVSVAQRVSHELGPSLRRNVGFQVRLESKPPSRGGALLFCTVGILLRKLQSNPSLEGVSHVIVDEVHERDVNTDFLLILLKGLQRLNPALRLVLMSATGDNERFSRYFGGCPVIKVPGFMYPVKEHYLEDILAKLGKHQYLHRHRHHESEDECALDLDLVTDLVLHIDARGEPGGILCFLPGWQEIKGVQQRLQEALGMHESKYLILPVHSNIPMMDQKAIFQQPPVGVRKIVLATNIAETSITINDIVHVVDSGLHKEERYDLKTKVSCLETVWVSRANVIQRRGRAGRCQSGFAYHLFPRSRLEKMVPFQVPEILRTPLENLVLQAKIHMPEKTAVEFLSKAVDSPNIKAVDEAVILLQEIGVLDQREYLTTLGQRLAHISTDPRLAKAIVLAAIFRCLHPLLVVVSCLTRDPFSSSLQNRAEVDKVKALLSHDSGSDHLAFVRAVAGWEEVLRWQDRSSRENYLEENLLYAPSLRFIHGLIKQFSENIYEAFLVGKPSDCTLASAQCNEYSEEEELVKGVLMAGLYPNLIQVRQGKVTRQGKFKPNSVTYRTKSGNILLHKSTINREATRLRSRWLTYFMAVKSNGSVFVRDSSQVHPLAVLLLTDGDVHIRDDGRRATISLSDSDLLRLEGDSRTVRLLKELRRALGRMVERSLRSELAALPPSVQEEHGQLLALLAELLRGPCGSFDVRKTADD

binding [3]: binds
B4: Ataxin2L (protein, UniProt Q8WWM7 1-1075)
chain: MLKPQPLQQPSQPQQPPPTQQAVARRPPGGTSPPNGGLPGPLATSAAPPGPPAAASPCLGPVAAAGSGLRRGAEGILAPQPPPPQQHQERPGAAAIGSARGQSTGKGPPQSPVFEGVYNNSRMLHFLTAVVGSTCDVKVKNGTTYEGIFKTLSSKFELAVDAVHRKASEPAGGPRREDIVDTMVFKPSDVMLVHFRNVDFNYATKDKFTDSAIAMNSKVNGEHKEKVLQRWEGGDSNSDDYDLESDMSNGWDPNEMFKFNEENYGVKTTYDSSLSSYTVPLEKDNSEEFRQRELRAAQLAREIESSPQYRLRIAMENDDGRTEEEKHSAVQRQGSGRESPSLASREGKYIPLPQRVREGPRGGVRCSSSRGGRPGLSSLPPRGPHHLDNSSPGPGSEARGINGGPSRMSPKAQRPLRGAKTLSSPSNRPSGETSVPPPPAVGRMYPPRSPKSAAPAPISASCPEPPIGSAVPTSSASIPVTSSVSDPGVGSISPASPKISLAPTDVKELSTKEPGRTLEPQELARIAGKVPGLQNEQKRFQLEELRKFGAQFKLQPSSSPENSLDPFPPRILKEEPKGKEKEVDGLLTSEPMGSPVSSKTESVSDKEDKPPLAPSGGTEGPEQPPPPCPSQTGSPPVGLIKGEDKDEGPVAEQVKKSTLNPNAKEFNPTKPLLSVNKSTSTPTSPGPRTHSTPSIPVLTAGQSGLYSPQYISYIPQIHMGPAVQAPQMYPYPVSNSVPGQQGKYRGAKGSLPPQRSDQHQPASAPPMMQAAAAAGPPLVAATPYSSYIPYNPQQFPGQPAMMQPMAHYPSQPVFAPMLQSNPRMLTSGSHPQAIVSSSTPQYPSAEQPTPQALYATVHQSYPHHATQLHAHQPQPATTPTGSQPQSQHAAPSPVQHQAGQAPHLGSGQPQQNLYHPGALTGTPPSLPPGPSAQSPQSSFPQPAAVYAIHHQQLPHGFTNMAHVTQAHVQTGITAAPPPHPGAPHPPQVMLLHPPQSHGGPPQGAVPQSGVPALSASTPSPYPYIGHPQGEQPGQAPGFPGGADDRIREFSLAGGIWHGRAEGLQVGQDARVLGGE

The next lines start with the molecule.

Molecule: ATP synthase subunit beta, mitochondrial (from UniProt P06576 48-529)
binding [1]: binds
binding [3]: binds

Molecule: ATP-citrate synthase (ATP citrate-lyase), endogenous (from UniProt P53396 1-1101) (enzyme)
binding [3]: binds

Molecule: Dynamin-1-like protein (from UniProt O00429 1-736)
binding [3]: binds

Molecule: Stress-70 protein, mitochondrial (from UniProt P38646 47-679)
binding [4]: binds
binding [1]: binds

B1: Cob(I)yrinic acid a,c-diamide adenosyltransferase, mitochondrial (enzyme, UniProt Q96EY8 33-250)
chain: QSRGPQGVEDGDRPQPSSKTPRIPKIYTKTGDKGFSSTFTGERRPKDDQVFEAVGTTDELSSAIGFALELVTEKGHTFAEELQKIQCTLQDVGSALATPCSSAREAHLKYTTFKAGPILELEQWIDKYTSQLPPLTAFILPSGGKISSALHFCRAVCRRAERRVVPLVQMGETDANVAKFLNRLSDYLFTLARYAAMKEGNQEKIYMKNDPSAESEGL
binding [3]: binds

B2: Hyaluronan mediated motility receptor (protein, UniProt O75330 1-724)
chain: MSFPKAPLKRFNDPSGCAPSPGAYDVKTLEVLKGPVSFQKSQRFKQQKESKQNLNVDKDTTLPASARKVKSSESKESQKNDKDLKILEKEIRVLLQERGAQDRRIQDLETELEKMEARLNAALREKTSLSANNATLEKQLIELTRTNELLKSKFSENGNQKNLRILSLELMKLRNKRETKMRGMMAKQEGMEMKLQVTQRSLEESQGKIAQLEGKLVSIEKEKIDEKSETEKLLEYIEEISCASDQVEKYKLDIAQLEENLKEKNDEILSLKQSLEENIVILSKQVEDLNVKCQLLEKEKEDHVNRNREHNENLNAEMQNLKQKFILEQQEREKLQQKELQIDSLLQQEKELSSSLHQKLCSFQEEMVKEKNLFEEELKQTLDELDKLQQKEEQAERLVKQLEEEAKSRAEELKLLEEKLKGKEAELEKSSAAHTQATLLLQEKYDSMVQSLEDVTAQFESYKALTASEIEDLKLENSSLQEKAAKAGKNAEDVQHQILATESSNQEYVRMLLDLQTKSALKETEIKEITVSFLQKITDLQNQLKQQEEDFRKQLEDEEGRKAEKENTTAELTEEINKWRLLYEELYNKTKPFQLQLDAFEVEKQALLNEHGAAQEQLNKIRDSYAKLLGHQNLKQKIKHVVKLKDENSQLKSEVSKLRCQLAKKKQSETKLQEELNKVLGIKHFDPSKAFHHESKENFALKTPLKEGNTNCYRAPMECQESWK
binding [3]: binds
